Source: the supplement of paper PMC4635364
Where a name gives a salt, the structure may show the parent alone. Some of the results follow. Repeats in this data set agree poorly, so a single value says little.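 Human fetal ventral-midbrain neural progenitor line ReNCell VM, differentiated without mitogens. Images stained for doublecortin (early neurons) or tyrosine hydroxylase (dopaminergic neurons) were scored by blinded raters against untreated wells (0 = no change). Repeats and both raters were averaged, and compounds averaging 2 or higher were picked as hits for retesting.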

The compounds below were run on ReNCell VM (assay: dopaminergic neuron differentiation score (TH+ cell fraction vs untreated, manual image score) (score (0 to 3)); higher = more TH+ dopaminergic neuron differentiation). Details: library: Phytochemical; 2 uM; 4 weeks; BDNF 10 ng/ml + GDNF 10 ng/ml.

SMILES	dopaminergic neuron differentiation score
c1cncc(C2=NCCC2)c1 [Myosmine]	inactive: 0
CC(C)C[C@H]1C(=O)N2CCC[C@H]2[C@]2(O)O[C@](NC(=O)[C@@H]3C=C4c5cccc6[nH]c(Br)c(c56)C[C@H]4N(C)C3)(C(C)C)C(=O)N12 [Bromocryptine mesylate]	inactive: 0
COC(=O)C1=CCCN(C)C1 [Arecoline hydrobromide]	inactive: 0
Cc1c2ccncc2c(C)c2c1[nH]c1ccccc12 [Ellipticine]	inactive: 0
CC(C)[C@@]1(NC(=O)[C@@H]2C[C@@H]3c4cccc5[nH]cc(c45)C[C@H]3N(C)C2)O[C@@]2(O)[C@@H]3CCCN3C(=O)[C@H](Cc3ccccc3)N2C1=O [Dihydroergocristine mesylate]	inactive: 0

Same assay, conditions: library: Prestwick; 2 uM; 4 weeks; BDNF 10 ng/ml + GDNF 10 ng/ml

SMILES	dopaminergic neuron differentiation score
COc1cccc(C2(O)CCCCC2CN(C)C)c1 (configuration not stated) [Tramadol hydrochloride]	inactive: 1
CC(C)C[C@H]1C(=O)N2CCC[C@H]2[C@]2(O)O[C@](NC(=O)[C@@H]3C=C4c5cccc6[nH]c(Br)c(c56)C[C@H]4N(C)C3)(C(C)C)C(=O)N12 [Bromocryptine mesylate]	inactive: 0
NCC1(CC(=O)O)CCCCC1 [Gabapentin]	inactive: 0
CC(NC(C)(C)C)C(=O)c1cccc(Cl)c1 (configuration not stated) [Bupropion hydrochloride]	inactive: 0
CC(=O)O[C@H]1C[C@@H]2CC[C@@H]3[C@H](CC[C@@]4(C)[C@H]3C[C@H]([N+]3(C)CCCCC3)[C@@H]4OC(C)=O)[C@@]2(C)C[C@@H]1[N+]1(C)CCCCC1 [Pancuronium bromide]	inactive: 0

Same assay, conditions: library: Spectrum; 2 uM; 4 weeks; BDNF 10 ng/ml + GDNF 10 ng/ml

SMILES	dopaminergic neuron differentiation score
CNC(=O)Oc1ccccc1OC(C)C	inactive: 0
CC[C@@H](CO)NC(=O)[C@@H]1C=C2c3cccc4[nH]cc(c34)C[C@H]2N(C)C1	inactive: 0
CN(C)C(=S)SSC(=S)N(C)C	inactive: 0
C[N+](C)(C)CCCCCCCCCC[N+](C)(C)C	inactive: 0
CN1CCN(C(=O)O[C@H]2c3nccnc3C(=O)N2c2ccc(Cl)cn2)CC1	inactive: 0
COP(=O)(OC)OC=C(Cl)Cl	inactive: 0
CC(C)c1cccc(C(C)C)c1O	inactive: 0
NCCc1c[nH]c2ccc(O)cc12	inactive: 0
COc1ccc(CN2CCNCC2)c(OC)c1OC	inactive: 0
COc1cc([C@@H]2c3cc4c(cc3[C@H](O)[C@H]3COC(=O)[C@H]23)OCO4)cc(OC)c1OC	inactive: 0
C=CCSSCC=C	inactive: 0
C[C@@H](N)[C@@H](O)c1ccccc1	inactive: 0

A different layout for two compounds above.
SMILES,dopaminergic neuron differentiation score
COc1ccc(CN2CCNCC2)c(OC)c1OC,inactive: 0
COc1cc([C@@H]2c3cc4c(cc3[C@H](O)[C@H]3COC(=O)[C@H]23)OCO4)cc(OC)c1OC,inactive: 0
